Paper PMC8305389, “Tuning Photodynamic Properties of BODIPY Dyes, Porphyrins’ Little Sisters” (Molecules, 2021)
Entries after “also recorded” stand apart in the source; their conditions may differ.

Tested on: SK-MEL-28 cells
Experiment: Subcellular localization by fluorescence microscopy
Type: cell-based, human
Details: SK-MEL-28, 12 h incubation with 1 μM

SMILES: CC1=C(Br)C(C)=[N+]2C1=C(c1ccc(OCCCCCCCCN3C(=O)c4ccccc4C3=O)cc1)c1c(C)c(Br)c(C)n1[B-]2(F)F [4b, 2,6-Dibromo-1,3,5,7-Tetramethyl-8-{4-[8-(phthalimidyl)octyloxy]phenyl}-4,4-difluoro-4-bora-3a,4a-diaza-s-indacene]
- subcellular localization (colocalized fluorescence signal): lysosomes; also recorded: adiposomes (lipid droplets)
